In patent US20160185832A1:
Results are given in words; binding and its absence hold for the method and conditions named. Some results given as binding are weak or reduced against the parent protein; the word gives no strength.

Chains of the proteins cited; added tags and fusions are not shown. Lines headed by an entry give the natural chain unless they say otherwise; changes in a name come on top.
UniProt P81947: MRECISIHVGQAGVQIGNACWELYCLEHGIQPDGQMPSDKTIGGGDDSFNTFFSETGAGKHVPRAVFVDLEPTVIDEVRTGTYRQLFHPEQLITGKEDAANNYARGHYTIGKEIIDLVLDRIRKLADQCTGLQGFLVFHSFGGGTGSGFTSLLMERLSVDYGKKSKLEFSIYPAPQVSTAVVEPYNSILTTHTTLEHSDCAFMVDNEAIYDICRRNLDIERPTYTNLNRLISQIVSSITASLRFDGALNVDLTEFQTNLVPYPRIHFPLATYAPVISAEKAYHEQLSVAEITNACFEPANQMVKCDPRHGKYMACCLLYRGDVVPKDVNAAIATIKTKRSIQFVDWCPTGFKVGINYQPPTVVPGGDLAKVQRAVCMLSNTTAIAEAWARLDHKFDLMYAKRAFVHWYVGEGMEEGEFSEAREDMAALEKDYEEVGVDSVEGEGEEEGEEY
UniProt Q6B856: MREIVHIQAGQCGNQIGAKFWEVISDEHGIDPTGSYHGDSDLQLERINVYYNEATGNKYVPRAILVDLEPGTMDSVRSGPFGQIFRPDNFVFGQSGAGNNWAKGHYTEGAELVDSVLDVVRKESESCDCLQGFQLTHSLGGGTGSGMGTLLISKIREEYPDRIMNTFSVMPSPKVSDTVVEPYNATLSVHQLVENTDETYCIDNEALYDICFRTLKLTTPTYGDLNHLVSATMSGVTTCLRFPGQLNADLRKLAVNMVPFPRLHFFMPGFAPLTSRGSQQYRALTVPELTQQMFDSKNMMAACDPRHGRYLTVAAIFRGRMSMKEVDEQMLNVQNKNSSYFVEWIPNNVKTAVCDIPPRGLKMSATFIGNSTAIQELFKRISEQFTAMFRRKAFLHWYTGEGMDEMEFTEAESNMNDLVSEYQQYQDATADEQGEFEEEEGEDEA
UniProt O15078: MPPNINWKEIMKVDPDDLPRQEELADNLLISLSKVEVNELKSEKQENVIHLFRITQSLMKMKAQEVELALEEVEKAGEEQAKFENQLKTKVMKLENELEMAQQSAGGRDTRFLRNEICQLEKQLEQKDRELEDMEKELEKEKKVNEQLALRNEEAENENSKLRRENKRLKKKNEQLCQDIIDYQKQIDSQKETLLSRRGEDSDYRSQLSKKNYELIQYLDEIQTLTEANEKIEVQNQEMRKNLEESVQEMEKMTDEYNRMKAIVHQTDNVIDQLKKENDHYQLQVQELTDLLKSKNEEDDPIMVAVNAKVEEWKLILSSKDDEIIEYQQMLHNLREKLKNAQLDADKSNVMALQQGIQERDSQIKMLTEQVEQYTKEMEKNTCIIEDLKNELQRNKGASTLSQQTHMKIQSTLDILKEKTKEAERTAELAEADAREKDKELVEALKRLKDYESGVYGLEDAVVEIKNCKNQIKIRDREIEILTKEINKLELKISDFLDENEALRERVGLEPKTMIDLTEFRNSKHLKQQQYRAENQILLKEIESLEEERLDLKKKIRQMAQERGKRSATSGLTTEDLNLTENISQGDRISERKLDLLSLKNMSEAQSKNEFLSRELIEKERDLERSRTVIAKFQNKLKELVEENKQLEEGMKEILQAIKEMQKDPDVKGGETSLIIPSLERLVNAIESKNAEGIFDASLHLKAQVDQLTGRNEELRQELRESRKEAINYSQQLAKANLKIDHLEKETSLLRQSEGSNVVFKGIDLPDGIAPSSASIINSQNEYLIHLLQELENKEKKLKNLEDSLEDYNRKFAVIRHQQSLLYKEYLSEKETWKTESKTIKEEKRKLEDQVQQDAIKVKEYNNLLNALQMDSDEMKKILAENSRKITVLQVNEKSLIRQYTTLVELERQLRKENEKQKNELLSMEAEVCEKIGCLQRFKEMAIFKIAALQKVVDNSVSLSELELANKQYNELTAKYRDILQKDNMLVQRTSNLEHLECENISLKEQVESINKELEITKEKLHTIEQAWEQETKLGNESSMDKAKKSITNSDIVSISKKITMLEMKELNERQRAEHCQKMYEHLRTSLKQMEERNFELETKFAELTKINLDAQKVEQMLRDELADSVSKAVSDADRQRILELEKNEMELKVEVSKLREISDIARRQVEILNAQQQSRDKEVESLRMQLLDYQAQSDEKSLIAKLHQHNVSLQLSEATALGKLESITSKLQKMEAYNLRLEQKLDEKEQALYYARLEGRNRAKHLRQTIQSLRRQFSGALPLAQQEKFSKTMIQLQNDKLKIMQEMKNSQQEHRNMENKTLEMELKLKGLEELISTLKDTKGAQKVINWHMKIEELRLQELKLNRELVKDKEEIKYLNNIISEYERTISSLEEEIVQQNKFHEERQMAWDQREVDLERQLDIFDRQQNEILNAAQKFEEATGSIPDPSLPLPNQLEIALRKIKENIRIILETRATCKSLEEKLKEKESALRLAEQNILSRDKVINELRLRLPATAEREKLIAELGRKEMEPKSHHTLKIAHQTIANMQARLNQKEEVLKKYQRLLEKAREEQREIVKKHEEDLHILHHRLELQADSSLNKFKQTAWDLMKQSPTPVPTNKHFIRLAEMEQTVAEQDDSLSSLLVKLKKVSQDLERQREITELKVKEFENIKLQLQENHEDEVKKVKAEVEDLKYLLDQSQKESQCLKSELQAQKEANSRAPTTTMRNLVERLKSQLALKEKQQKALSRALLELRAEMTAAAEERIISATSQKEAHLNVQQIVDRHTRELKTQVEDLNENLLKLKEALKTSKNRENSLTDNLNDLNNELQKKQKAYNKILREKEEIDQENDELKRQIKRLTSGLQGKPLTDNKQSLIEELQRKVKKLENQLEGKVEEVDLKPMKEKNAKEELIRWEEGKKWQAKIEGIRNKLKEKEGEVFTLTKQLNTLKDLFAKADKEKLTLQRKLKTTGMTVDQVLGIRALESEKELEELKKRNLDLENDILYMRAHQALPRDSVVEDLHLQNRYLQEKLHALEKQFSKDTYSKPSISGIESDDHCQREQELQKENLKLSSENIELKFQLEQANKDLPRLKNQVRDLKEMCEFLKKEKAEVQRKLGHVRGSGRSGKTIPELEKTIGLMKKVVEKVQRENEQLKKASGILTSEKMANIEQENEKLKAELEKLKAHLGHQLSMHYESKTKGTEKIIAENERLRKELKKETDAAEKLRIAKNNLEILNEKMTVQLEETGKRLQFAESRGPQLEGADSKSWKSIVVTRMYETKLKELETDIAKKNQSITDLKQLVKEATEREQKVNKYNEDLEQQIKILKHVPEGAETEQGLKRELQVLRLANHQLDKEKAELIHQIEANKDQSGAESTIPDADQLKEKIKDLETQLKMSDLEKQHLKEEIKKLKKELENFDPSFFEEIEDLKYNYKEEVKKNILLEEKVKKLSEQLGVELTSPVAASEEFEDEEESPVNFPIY

target: pure, pre-polymerized, taxol-stabilized microtubules of bovine tubulin (Cytoskeleton) (bovine) (UniProt P81947+Q6B856); test: in vitro microtubule co-sedimentation of in vitro translated GFP fusions, western blot

binding	Substance
binds	GFP fusion of CEP290 aa 580-2479 (from UniProt O15078 580-2479)
binds	GFP fusion of full length human CEP290 (aa 1-2479) (from UniProt O15078 1-2479)
binds	GFP fusion of CEP290 aa 1-1966 (from UniProt O15078 1-1966)
